# Measured values taken from US20050163783A1.
# Protein sequences, listed by entry. Tags and fused reporters are not part of them. Residues count along the entry.
# UniProt P13385, residues 31-150: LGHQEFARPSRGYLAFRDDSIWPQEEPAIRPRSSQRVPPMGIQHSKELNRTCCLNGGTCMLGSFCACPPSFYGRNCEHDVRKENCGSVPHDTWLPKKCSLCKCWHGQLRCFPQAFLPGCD
# These are yes or no findings as the source states them, for the method shown. Some results given as binding are weak or reduced against the parent protein; the word gives no strength.
# Tests used:
# [1] = target: CRIPTO antigen on GEO tumor cells (UniProt P13385); assay: flow cytometry competitive binding on GEO tumor cells (FIG. 35 legend)
# [2] = target: CRIPTO antigen on GEO tumor cells (UniProt P13385); assay: flow cytometry competitive binding assay with FITC-labeled B3F6 IgG on GEO tumor cells
binder,measurement,setting,value
"ChB3F6ΔCH2 G1/G3/Pro243Ala244Pro245 antibody (antibody, human IgG1, kappa, V domains shown) VH: QVQLQQVGAELVKPGASVKLSCKASGYTFTSYWIHWVKQRPGQGLEWIGENDPSNGRTNYNEKFKNKATLTVDKSSSTAYMHLSSLTSEDSAVYYCSRGPNYFYSMDYWGQGTSVTVSS VL: DFLMTQTPLSLPVSLGDQASISCRSSQSIVHSNGNTYLEWYLQKPGQSPKLLIYKVSNRFSGVPDRFSGSGSGTDFTLKISRVEAEDLGVYYCFQGSHVPLTFGAGTKLELKR",binding,[1],binds
same,binding,[2],binds
